{"source": "the supplement of paper PMC12819154", "about": "“High-throughput peptide-centric local stability assay extends protein–ligand identification to membrane proteins, tissues and bacteria” (Nature Structural & Molecular Biology, 2025)", "note": "The list shows a part of the results. Most entries show no effect beyond the scatter of the controls.", "data": [{"compound": "CN[C@@H]1C[C@H]2O[C@@](C)([C@@H]1OC)n1c3ccccc3c3c4c(c5c6ccccc6n2c5c31)C(=O)NC4 [staurosporine]", "test": "log2 fold change of tryptic peptide abundance, ligand vs vehicle (limited proteolysis) (log2 ratio); higher = more trypsin-susceptible (destabilized)", "conditions": "ligand concentration: 20 uM; sample: K562 cleared lysate; digestion: 4 min, 22 C (HT-PELSA RT4min, Orbitrap Astral)", "values": [{"target": "IGFBP4 (peptide sequence: GELDCHQLADSFRE, peptide start residue: 245) (UniProt P22692)", "log2 fold change": 0.152}, {"target": "YY1 (peptide sequence: SYLSGGAGAAGGGGADPGNKK, peptide start residue: 184) (UniProt P25490)", "log2 fold change": -0.218}, {"target": "HIVEP1 (peptide sequence: SSPAPSENTHISPLK, peptide start residue: 1873) (UniProt P15822)", "log2 fold change": -0.589}, {"target": "RAC2 (peptide sequence: LDLRDDKDTIEK, peptide start residue: 117) (UniProt P15153)", "log2 fold change": 0.715}, {"target": "IMPDH1 (peptide sequence: DIDFLAEKDHTTLLSEVMTPR, peptide start residue: 162) (UniProt P20839)", "log2 fold change": 0.306}, {"target": "AK4 (peptide sequence: QYKDVAKPVIELYK, peptide start residue: 173) (UniProt P27144)", "log2 fold change": 0.717}, {"target": "LMNB1 (peptide sequence: EQHDAQVR, peptide start residue: 251) (UniProt P20700)", "log2 fold change": 0.318}, {"target": "VARS (peptide sequence: LGSSLDWDR, peptide start residue: 434) (UniProt P26640)", "log2 fold change": 0.249}, {"target": "SCP2 (peptide sequence: EATWVVDVK, peptide start residue: 471) (UniProt P22307)", "log2 fold change": -0.403}, {"target": "PSMB1 (peptide sequence: DVFISAAERDVYTGDALR, peptide start residue: 205) (UniProt P20618)", "log2 fold change": -0.141}]}]}
